{"sequences": {"note": "The chains behind the UniProt entries cited, without tags or fusion partners.", "UniProt P99999": "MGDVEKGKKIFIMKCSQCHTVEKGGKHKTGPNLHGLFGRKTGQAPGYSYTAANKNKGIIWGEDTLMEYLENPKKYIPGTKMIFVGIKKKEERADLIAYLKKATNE"}, "source": "paper PMC9163188", "molecular_target": "T1, Flag-USP53 (ubiquitin-specific peptidase 53) (UniProt Q70EK8)", "T1 sequence": "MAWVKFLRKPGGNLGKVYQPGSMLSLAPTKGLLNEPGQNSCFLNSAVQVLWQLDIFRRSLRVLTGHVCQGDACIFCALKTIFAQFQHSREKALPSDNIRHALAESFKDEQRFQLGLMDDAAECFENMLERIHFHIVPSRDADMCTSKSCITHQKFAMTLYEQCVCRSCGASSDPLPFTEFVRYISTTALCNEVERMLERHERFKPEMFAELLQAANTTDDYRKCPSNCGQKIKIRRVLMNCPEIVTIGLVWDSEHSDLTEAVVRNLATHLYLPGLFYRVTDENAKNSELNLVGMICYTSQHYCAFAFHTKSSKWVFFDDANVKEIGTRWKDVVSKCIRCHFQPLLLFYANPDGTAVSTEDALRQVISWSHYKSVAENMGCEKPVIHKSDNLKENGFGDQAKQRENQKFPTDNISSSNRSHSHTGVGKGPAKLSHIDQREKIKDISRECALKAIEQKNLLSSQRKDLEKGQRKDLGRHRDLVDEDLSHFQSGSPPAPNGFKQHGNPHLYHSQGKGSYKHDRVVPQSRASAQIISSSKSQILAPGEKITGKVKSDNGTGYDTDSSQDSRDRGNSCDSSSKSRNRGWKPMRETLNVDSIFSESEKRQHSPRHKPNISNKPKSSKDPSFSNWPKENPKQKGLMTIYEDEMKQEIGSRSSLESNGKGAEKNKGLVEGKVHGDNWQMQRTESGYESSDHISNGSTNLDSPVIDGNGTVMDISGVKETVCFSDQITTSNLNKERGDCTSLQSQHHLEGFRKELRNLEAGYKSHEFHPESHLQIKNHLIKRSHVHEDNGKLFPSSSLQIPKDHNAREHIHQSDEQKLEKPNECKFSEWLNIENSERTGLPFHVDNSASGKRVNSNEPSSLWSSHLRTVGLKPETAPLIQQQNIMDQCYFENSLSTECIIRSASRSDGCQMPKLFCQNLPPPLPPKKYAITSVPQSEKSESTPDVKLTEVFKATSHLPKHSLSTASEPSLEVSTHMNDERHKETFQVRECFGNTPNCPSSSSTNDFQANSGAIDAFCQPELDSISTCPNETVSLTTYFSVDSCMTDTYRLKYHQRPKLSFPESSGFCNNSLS", "experiment": "co-IP; exogenous Co-IP: HA-CYCS and Flag-USP53 co-transfected into HEK-293T cells (text: HEK-293T, Huh-7 and HCCLM3); same protocol as the CO-IP/MS (IP buffer, anti-flag antibody or IgG, Protein A/G magnetic beads, 4 °C)", "note": "No constants are given. Whether binding was seen depends on the method and setting. In cells and extracts the contact can be indirect. Some results given as binding are weak or reduced against the parent protein; the word gives no strength. Sequences can lack the tags named with a protein."}
{"substance": "HA-CYCS (from UniProt P99999 1-105)", "values": [{"measurement": "binding", "result": "binds"}]}
